PubChem BioAssay AID1224828, NIAID | 2016

- Purpose: 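Find genes required for NF-kappaB p65 moving into the nucleus after LPS in mouse macrophages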 (primary screen)
- System: mouse RAW264.7 G9 macrophage reporter cells (GFP-p65, Tnf promoter-mCherry)
- Knock-down reagent: siRNA pool against mouse genes, 100 nM
- Timing: 2 days siRNA transfection, then 40 min LPS before fixation
- Conditions: LPS (Salmonella minnesota R595) at 10 ng/ml
- Measured: 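Imaged p65 nuclear translocation ratio, normalised to the plate median, converted to robust z-scores and averaged across two replicates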
- Reading the numbers: p65 translocation robust z-score: higher = more nuclear NF-kappaB p65 after LPS than the plate median; nuclear/cytoplasmic p65 ratio: higher = more nuclear NF-kappaB p65
- Rule for the call: 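Active if robust z is above 3.3 (negative regulators) or below -1.56, the Tlr4 control median (positive regulators); activity score 50 or more; control wells not called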
- Calls: active = hit (p65 shift raised or lowered); inactive = no clear change
Here is an unselected part of about 17,000 deposited reagents. Over the whole deposit, 762 (4.5%) got an active call. 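Active calls include both raised and lowered p65 entry, mostly lowered; wells with fewer than 50 cells lack a z-score.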 Raw values vary from plate to plate and are shown uncorrected. Unmarked entries are inactive. The numbers tell different reagents against one gene apart. No sequences are given here.

| Gene | reagent no. | p65 translocation robust z-score | nuclear/cytoplasmic p65 ratio, rep 1 | nuclear/cytoplasmic p65 ratio, rep 2 | low cell count flag |
| --- | --- | --- | --- | --- | --- |
| Haus6 | 1 | 1.19 | 1.47 | 1.66 | enough cells to score |
| Hoxa1 | 1 | 0.92 | 1.5 | 1.55 | enough cells to score |
| Hsf2 | 1 | 1.4 | 1.7 | 1.48 | enough cells to score |
| Nr0b2 | 1 | -1.44 | 1.22 | 1.26 | enough cells to score |
| Ctdnep1 | 1 | – | 1.61 | 1.55 | fewer than 50 cells per well; well left out of scoring |
| Fezf2 | 1 | -0.16 | 1.46 | 1.18 | enough cells to score |
| Prlr | 1 | 0.41 | 1.59 | 1.43 | enough cells to score |
| Prlr | 2 | -0.53 | 1.53 | 1.6 | enough cells to score |
| Chrnb4 | 1 | -1.54 | 1.26 | 1.18 | enough cells to score |
| Ubl4a | 1 | 0.51 | 1.52 | 1.63 | enough cells to score |
| Sprr2k | 1 | -0.55 | 1.28 | 1.23 | enough cells to score |
| Tmem9 | 1 | – | 1.24 | 1.24 | fewer than 50 cells per well; well left out of scoring |
| Slc71a2 | 1 | 0.13 | 1.37 | 1.49 | enough cells to score |
| Ccdc187 | 1 | – | 1.36 | 1.12 | fewer than 50 cells per well; well left out of scoring |
| C130023O10Rik | 1 | 1.02 | 1.54 | 1.69 | enough cells to score |
| Hoxd3 | 1 | -1.87 (active) | 1.15 | 1.17 | enough cells to score |
| Pbld2 | 1 | – | 1.24 | 1.25 | fewer than 50 cells per well; well left out of scoring |
| Timm22 | 1 | – | 1.23 | 1.18 | fewer than 50 cells per well; well left out of scoring |
| Lratd2 | 1 | -0.74 | 1.43 | 1.48 | enough cells to score |
| Pvr | 1 | 0.01 | 1.49 | 1.34 | enough cells to score |
| Pvr | 2 | -1.04 | 1.4 | 1.34 | enough cells to score |
| Eqtn | 1 | -1.56 | 1.08 | 1.1 | enough cells to score |
| Smad4 | 1 | 0.25 | 1.51 | 1.67 | enough cells to score |
| Tomm20 | 1 | -1.2 | 1.26 | 1.02 | enough cells to score |
